Consider four sequences from paper PMC13245405, “Stable inheritance of the Streptomyces linear plasmid SCP1 by dual ParABS partition systems” (Nucleic Acids Research, 2026).

Data set [1] concerns the target T1, ParB2-His6 WT (Streptomyces coelicolor A3(2), plasmid SCP1) (UniProt Q9ACT0).
T1 sequence (looked up): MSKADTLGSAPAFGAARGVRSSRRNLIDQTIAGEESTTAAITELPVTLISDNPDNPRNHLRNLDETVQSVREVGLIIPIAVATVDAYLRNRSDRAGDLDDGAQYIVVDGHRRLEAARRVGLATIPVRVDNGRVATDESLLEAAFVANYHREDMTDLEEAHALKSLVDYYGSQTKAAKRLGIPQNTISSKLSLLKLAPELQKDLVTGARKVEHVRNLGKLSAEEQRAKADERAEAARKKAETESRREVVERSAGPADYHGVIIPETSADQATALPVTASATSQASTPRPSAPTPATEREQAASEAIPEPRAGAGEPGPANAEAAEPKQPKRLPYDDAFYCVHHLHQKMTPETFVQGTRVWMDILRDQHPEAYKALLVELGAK
Nature of the data set: BLI. The conditions noted are these: BLI: 100 mM Tris-HCl pH 8, 100 mM NaCl, 1 mM MgCl2, 0.005% Tween 20, 25 C, ParB 0.0625-2 uM (50 bp) or 1 uM (190 bp), recombinant protein, residues 1-381, protein details: C-terminal His6, label: 5' biotin on strand 1.

In data set [2] the target is T2, ParB1-His6 WT (Streptomyces coelicolor A3(2), plasmid SCP1) (UniProt Q9AD11).
T2 sequence (looked up): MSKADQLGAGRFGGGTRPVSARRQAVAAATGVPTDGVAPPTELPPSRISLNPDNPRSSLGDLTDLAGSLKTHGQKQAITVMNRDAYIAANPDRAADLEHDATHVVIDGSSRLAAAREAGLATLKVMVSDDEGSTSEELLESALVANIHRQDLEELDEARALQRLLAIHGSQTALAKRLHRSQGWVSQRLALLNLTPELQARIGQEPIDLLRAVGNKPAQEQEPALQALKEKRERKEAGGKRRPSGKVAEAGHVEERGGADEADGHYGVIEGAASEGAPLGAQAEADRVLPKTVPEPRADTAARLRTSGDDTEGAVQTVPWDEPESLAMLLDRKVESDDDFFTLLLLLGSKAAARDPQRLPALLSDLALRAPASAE
Briefly: BLI. Conditions: BLI: 100 mM Tris-HCl pH 8, 100 mM NaCl, 1 mM MgCl2, 0.005% Tween 20, 25 C, ParB 0.0625-2 uM (50 bp) or 1 uM (190 bp), recombinant protein, residues 1-375, protein details: C-terminal His6, label: 5' biotin on strand 1.

Negatives hold for the conditions tested. At least one verdict rests on a figure or table, not on a statement of the authors. Protein sequences can lack the tags named with them. For at least one entry, the source does not settle the construct or the ends of the probe. The comparison behind a weaker result is the experiment's own reference, which may not be listed here.

As to “AGCAGGCCCCGCCGATTATCACGGCGTGATAATCCCGGAGACGTCCGCTG (double strand) [parS2 50 bp]”, the binding result in data set [1] (1 mM CTP) is on record as “binds more weakly”; in data set [2] (no CTP), “no binding”.
For “CTGGGTATTCCCTCAATTATCACGGCGTGATAATAACGAACGACGCTCGC (double strand) [parS2 truncated by 1 bp each end]”, in data set [1], the binding result is “binds”.
On the same count and under the same terms, the value for “CTGGGTATTCCCTCAGTTATCACGGCGTGATAAGAACGAACGACGCTCGC (double strand) [parS2 truncated by 2 bp each end]” was “binds”.
Consider “CTTCGGACGCGGCACCCTCTATTACGGCGTAATGGCCGTCTGCCTCATCC / GGATGAGGCAGACGGCCATTACGGCGTAATAGAGGGTGCCGCGTCCGAAG [parS1 50 bp]”, for which the binding result in data set [1] (no CTP) is recorded as “no binding”; in data set [2] (1 mM CTP) it was “binds more weakly”.
